Experimental data published in the supplement of paper PMC12067093, “Discovery and optimisation of a covalent ligand for TRIM25 and its application to targeted protein ubiquitination” (Chemical Science, 2025).
Some of the results follow.

By UniProt entry, the sequences of proteins in these tests, tags left out. Where a name states a change or a piece, a line headed by the entry shows the natural chain unless it says otherwise.
UniProt Q99733: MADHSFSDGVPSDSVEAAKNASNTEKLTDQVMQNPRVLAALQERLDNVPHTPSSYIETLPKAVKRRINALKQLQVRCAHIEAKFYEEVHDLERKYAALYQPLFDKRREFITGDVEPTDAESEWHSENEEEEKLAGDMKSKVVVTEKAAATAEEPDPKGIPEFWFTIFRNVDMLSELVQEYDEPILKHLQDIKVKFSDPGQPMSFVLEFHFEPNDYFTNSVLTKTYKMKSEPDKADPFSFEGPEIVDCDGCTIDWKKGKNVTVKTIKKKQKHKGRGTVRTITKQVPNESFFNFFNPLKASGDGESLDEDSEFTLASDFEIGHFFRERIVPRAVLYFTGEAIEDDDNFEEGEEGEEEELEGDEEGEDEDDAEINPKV
UniProt Q6IA69: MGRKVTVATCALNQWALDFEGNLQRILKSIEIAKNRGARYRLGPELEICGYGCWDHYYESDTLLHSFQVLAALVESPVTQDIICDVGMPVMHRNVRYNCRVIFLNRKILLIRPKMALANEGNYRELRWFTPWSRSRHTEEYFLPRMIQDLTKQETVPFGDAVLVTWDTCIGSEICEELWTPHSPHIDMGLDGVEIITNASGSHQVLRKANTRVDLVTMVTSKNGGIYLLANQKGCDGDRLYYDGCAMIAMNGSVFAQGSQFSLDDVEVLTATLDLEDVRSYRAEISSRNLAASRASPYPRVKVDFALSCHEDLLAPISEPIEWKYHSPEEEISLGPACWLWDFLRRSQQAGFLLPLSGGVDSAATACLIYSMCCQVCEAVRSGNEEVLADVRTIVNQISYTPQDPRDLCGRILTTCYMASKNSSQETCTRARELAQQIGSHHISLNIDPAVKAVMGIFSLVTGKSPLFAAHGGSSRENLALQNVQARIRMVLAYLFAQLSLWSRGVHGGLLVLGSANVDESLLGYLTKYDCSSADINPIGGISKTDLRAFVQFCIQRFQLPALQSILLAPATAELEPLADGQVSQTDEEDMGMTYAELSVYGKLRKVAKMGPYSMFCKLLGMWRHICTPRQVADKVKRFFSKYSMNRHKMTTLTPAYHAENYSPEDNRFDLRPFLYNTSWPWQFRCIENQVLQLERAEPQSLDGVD
UniProt Q15003, whole entry, looked up: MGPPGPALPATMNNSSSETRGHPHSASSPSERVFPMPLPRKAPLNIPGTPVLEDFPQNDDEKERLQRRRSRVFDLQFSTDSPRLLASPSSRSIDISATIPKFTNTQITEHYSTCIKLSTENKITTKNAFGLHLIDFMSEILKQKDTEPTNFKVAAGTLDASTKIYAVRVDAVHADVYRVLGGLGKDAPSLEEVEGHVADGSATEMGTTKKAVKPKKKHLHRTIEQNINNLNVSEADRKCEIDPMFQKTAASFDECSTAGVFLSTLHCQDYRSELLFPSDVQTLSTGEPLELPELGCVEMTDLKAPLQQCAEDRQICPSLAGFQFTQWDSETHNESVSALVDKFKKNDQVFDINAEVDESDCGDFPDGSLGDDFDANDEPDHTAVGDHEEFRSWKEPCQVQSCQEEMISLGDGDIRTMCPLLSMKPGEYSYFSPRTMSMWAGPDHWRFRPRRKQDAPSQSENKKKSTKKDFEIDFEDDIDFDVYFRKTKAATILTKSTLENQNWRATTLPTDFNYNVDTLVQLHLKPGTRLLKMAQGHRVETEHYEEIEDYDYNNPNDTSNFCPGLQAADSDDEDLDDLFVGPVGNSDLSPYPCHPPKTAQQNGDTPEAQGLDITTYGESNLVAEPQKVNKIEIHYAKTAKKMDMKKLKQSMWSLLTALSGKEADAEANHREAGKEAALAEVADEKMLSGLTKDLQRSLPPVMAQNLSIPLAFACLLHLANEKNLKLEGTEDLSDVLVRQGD
UniProt P60660, whole entry, looked up: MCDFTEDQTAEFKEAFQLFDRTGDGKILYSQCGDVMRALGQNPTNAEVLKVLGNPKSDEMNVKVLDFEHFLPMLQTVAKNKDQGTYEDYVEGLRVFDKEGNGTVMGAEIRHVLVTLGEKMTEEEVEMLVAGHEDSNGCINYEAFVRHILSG
UniProt Q92614: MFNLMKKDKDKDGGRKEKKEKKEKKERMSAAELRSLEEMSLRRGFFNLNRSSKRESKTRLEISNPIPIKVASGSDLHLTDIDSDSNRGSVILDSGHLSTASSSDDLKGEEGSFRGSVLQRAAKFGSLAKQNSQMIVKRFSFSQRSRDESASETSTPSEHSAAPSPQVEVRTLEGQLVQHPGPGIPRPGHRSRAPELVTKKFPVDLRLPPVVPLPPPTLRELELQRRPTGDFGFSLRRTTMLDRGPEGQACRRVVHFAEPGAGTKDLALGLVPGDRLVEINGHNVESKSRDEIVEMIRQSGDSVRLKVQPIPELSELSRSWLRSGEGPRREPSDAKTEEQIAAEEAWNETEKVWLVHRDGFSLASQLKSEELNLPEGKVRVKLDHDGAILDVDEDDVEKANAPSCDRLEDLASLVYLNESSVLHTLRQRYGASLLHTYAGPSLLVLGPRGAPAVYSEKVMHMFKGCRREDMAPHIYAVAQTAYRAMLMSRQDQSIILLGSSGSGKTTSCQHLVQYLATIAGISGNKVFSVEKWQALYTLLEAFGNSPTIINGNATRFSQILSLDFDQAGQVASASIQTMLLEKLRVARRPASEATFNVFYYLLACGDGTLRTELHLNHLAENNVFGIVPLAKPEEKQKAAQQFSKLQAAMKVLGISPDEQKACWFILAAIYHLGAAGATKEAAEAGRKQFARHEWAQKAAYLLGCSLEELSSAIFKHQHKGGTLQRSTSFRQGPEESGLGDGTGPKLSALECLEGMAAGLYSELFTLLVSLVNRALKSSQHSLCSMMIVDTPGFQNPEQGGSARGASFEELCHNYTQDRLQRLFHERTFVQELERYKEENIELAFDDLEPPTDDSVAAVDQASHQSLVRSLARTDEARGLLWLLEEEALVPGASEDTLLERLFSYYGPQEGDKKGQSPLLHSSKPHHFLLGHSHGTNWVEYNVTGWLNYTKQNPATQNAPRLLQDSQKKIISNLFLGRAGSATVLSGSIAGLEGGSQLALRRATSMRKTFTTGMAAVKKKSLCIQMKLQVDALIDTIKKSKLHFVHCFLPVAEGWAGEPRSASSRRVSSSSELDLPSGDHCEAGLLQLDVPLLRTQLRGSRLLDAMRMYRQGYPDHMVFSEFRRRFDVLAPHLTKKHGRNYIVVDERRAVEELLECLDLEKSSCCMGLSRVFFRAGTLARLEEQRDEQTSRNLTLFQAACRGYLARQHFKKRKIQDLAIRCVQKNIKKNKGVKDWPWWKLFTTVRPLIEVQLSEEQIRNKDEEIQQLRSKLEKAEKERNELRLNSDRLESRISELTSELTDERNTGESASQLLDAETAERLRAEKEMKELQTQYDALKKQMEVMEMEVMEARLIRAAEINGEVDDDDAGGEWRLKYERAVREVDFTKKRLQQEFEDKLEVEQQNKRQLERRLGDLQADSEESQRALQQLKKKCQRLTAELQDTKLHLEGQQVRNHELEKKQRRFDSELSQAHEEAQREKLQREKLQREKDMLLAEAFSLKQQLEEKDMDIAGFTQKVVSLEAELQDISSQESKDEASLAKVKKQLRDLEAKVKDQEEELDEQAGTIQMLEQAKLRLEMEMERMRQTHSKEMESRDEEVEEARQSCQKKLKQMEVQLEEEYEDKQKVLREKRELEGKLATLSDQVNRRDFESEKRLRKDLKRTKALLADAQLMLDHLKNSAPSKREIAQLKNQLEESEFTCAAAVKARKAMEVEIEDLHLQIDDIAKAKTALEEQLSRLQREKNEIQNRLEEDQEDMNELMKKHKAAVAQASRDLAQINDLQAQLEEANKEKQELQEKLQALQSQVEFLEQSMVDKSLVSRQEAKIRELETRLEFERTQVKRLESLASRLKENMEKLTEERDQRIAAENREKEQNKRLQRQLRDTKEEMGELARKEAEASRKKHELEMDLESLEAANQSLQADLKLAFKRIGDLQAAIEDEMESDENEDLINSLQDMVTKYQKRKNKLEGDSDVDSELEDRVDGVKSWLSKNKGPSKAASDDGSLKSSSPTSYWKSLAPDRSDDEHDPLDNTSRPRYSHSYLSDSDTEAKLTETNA
UniProt P17050: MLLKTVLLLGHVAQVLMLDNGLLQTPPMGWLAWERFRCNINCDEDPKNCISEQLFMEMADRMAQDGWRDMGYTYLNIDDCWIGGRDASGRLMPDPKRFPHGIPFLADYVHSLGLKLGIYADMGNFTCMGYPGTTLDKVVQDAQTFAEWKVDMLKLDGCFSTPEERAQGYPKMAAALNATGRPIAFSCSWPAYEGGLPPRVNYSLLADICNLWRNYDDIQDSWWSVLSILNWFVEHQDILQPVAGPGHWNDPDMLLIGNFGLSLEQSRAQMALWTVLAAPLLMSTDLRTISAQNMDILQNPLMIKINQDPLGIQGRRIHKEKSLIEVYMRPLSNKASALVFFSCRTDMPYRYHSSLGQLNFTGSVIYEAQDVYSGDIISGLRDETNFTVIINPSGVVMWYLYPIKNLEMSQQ
UniProt B0I1T2: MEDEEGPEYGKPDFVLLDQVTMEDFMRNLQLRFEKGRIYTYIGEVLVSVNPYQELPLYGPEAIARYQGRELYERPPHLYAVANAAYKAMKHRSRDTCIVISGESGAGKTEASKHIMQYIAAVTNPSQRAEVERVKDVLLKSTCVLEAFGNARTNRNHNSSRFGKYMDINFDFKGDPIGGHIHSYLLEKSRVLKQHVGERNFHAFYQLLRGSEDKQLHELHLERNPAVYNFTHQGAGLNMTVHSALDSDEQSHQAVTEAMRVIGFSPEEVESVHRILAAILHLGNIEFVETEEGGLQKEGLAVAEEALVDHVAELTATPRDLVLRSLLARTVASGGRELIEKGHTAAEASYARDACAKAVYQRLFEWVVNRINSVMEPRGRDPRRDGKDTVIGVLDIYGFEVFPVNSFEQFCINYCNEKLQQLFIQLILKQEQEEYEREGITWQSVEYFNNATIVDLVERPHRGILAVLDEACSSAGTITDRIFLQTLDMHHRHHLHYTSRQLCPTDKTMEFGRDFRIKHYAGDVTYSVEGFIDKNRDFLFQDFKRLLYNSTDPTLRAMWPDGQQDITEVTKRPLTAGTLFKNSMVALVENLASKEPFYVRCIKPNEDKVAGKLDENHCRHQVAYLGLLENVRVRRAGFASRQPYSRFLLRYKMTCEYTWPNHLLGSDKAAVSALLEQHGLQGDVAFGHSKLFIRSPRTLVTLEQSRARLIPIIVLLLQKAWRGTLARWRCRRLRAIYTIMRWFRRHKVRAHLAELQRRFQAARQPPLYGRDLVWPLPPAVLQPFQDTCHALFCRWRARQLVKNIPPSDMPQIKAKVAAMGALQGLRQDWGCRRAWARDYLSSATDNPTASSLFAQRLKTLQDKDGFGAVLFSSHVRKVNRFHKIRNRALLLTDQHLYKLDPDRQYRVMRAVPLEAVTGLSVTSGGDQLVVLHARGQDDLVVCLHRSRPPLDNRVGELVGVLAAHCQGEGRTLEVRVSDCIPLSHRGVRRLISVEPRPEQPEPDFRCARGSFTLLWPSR
UniProt O00160: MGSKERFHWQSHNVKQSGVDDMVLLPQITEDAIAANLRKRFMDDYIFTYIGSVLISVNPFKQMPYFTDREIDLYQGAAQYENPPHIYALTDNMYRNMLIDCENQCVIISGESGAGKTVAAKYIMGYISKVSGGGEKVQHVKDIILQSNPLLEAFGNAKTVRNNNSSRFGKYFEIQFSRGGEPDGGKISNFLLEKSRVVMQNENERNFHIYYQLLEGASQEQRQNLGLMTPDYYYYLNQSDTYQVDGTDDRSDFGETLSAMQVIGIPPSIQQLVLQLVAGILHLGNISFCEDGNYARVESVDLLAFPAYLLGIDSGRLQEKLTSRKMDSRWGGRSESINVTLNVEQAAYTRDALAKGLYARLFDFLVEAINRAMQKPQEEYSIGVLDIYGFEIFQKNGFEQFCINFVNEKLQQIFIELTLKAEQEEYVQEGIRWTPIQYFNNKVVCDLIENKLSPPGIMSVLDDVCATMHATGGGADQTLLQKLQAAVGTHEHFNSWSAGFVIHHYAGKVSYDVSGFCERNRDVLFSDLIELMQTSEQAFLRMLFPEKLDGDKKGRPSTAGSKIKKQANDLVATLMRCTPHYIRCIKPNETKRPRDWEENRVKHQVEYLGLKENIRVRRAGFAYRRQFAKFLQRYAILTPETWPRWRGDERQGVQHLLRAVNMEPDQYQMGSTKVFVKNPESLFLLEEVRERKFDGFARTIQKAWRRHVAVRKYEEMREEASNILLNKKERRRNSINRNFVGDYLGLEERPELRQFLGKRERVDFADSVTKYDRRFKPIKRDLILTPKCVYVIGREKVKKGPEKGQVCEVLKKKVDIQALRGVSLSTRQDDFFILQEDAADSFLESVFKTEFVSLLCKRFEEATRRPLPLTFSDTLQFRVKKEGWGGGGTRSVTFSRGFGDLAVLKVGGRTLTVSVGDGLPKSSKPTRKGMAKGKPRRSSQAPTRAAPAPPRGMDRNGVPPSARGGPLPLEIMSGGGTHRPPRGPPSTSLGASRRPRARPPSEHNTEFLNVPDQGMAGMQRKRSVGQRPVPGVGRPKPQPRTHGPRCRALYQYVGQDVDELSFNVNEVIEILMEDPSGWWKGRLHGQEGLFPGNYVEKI

Compound: CC1Cc2ccccc2N1C(=O)C1CCCN(C1)C(=O)CCl (mixture of isomers) [TRIM25 ligand 11 (diastereomer mixture)]
Experiment: probe-labelled cysteine peptide fold change vs DMSO (competition) (log2 fold change); higher = less target engagement (more negative = stronger competition)
Settings: 10 µM; THP-1; incubation time: 4 h
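Also: competitive chemoproteomic profiling in live THP-1 cells with an iodoacetamide desthiobiotin (IA-DTB) probe, comparing probe-labelled peptide intensities in compound-treated cells against DMSO-treated controls.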

Question: With “NAP1L4_Q99733_247_ADPFSFEGPEIVDCDGCTIDWKK (UniProt Q99733)” as the target, how does the “probe-labelled cysteine peptide fold change” value read?
Answer: -0.0819

Question: “NADSYN1_Q6IA69_338_YHSPEEEISLGPACWLWDFLRR (UniProt Q6IA69)” was tested. Which “probe-labelled cysteine peptide fold change” value did it give?
Answer: 0.433

Question: For “NCAPH_Q15003_397+402_EPCQVQSCQEEMISLGDGDIR (UniProt Q15003)”, which “probe-labelled cysteine peptide fold change” value is on record?
Answer: -0.347

Question: “NAE1_Q13564_460_SCLTGFLQEYGLSVMVK (UniProt Q13564)” was tested. Which “probe-labelled cysteine peptide fold change” value did it give?
Answer: 0.102

Question: How did the “probe-labelled cysteine peptide fold change” value turn out when “MYOF_Q9NZM1_1131_HSATTVFGANTPIVSCNFDR (UniProt Q9NZM1)” was run?
Answer: -0.198

Question: How did the “probe-labelled cysteine peptide fold change” value turn out when “NCAPD2_Q15021_1249_MLDNFDCFGDK (UniProt Q15021)” was run?
Answer: 0.0438

Question: “MYL6_P60660_2_CDFTEDQTAEFK (UniProt P60660)” was tested. Which “probe-labelled cysteine peptide fold change” value did it give?
Answer: -0.127

Question: Which “probe-labelled cysteine peptide fold change” value does the source give for “MYO18A_Q92614_1046_LHFVHCFLPVAEGWAGEPR (UniProt Q92614)” here?
Answer: 0.231

Question: “NAGA_P17050_80_DMGYTYLNIDDCWIGGR (UniProt P17050)” was tested. Which “probe-labelled cysteine peptide fold change” value did it give?
Answer: -0.231

Question: “NCAPH_Q15003_418_TMCPLLSMK (UniProt Q15003)” was tested. Which “probe-labelled cysteine peptide fold change” value did it give?
Answer: -0.135

Question: For “MYO18A_Q92614_811_GASFEELCHNYTQDR (UniProt Q92614)”, which “probe-labelled cysteine peptide fold change” value is on record?
Answer: -0.0106

Question: “MYO1G_B0I1T2_831_QDWGCR (UniProt B0I1T2)” was tested. Which “probe-labelled cysteine peptide fold change” value did it give?
Answer: -0.0534

Question: Which “probe-labelled cysteine peptide fold change” value does the source give for “MYO1F_O00160_807_GQVCEVLKK (UniProt O00160)” here?
Answer: -0.0572

Question: How did the “probe-labelled cysteine peptide fold change” value turn out when “MYO18A_Q92614_604_RPASEATFNVFYYLLACGDGTLR (UniProt Q92614)” was run?
Answer: 0.245

Question: Which “probe-labelled cysteine peptide fold change” value does the source give for “MYO18A_Q92614_783_SSQHSLCSMMIVDTPGFQNPEQGGSAR (UniProt Q92614)” here?
Answer: 0.0781

Question: Which “probe-labelled cysteine peptide fold change” value does the source give for “NBEAL2_Q6ZNJ1_2335_ALEGIISNFGQTPCQLLK (UniProt Q6ZNJ1)” here?
Answer: 0.0509
